Source: the supplement of paper PMC3334620
In all, about 33,000 sequences were measured (“E-score (-0.5 to 0.5)”: median about -0.016, highest 2% from about 0.3 on). Some of the results follow.

These sequences were tested against T1, Yer184c (UniProt P39961) (assay: PBM E-score (8-mer binding enrichment) (E-score (-0.5 to 0.5)); higher = stronger / more preferred TF binding). Details: protein concentration: 100 nM; construct: GST-full length.
T1 sequence: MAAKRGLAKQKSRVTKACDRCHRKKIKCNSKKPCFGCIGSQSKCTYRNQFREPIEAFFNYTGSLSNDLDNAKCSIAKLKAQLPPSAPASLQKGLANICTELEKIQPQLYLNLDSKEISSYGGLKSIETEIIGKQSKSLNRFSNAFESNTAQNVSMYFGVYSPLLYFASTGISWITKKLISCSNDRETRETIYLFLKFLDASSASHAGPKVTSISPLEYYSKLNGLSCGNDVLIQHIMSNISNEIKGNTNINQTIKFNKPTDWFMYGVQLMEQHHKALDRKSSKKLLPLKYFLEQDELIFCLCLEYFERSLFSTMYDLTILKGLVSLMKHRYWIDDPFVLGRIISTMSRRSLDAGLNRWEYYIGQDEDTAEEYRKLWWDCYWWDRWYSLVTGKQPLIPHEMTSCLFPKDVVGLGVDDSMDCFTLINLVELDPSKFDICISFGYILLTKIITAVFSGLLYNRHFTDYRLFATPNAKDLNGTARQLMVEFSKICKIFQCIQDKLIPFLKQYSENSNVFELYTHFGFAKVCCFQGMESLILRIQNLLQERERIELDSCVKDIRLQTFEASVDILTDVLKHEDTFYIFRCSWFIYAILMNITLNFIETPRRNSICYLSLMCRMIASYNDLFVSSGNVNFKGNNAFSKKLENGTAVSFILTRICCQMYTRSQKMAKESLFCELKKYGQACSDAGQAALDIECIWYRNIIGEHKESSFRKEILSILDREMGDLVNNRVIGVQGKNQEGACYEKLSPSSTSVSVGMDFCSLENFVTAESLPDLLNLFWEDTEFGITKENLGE
Summary of the method: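 Universal all-10-mer Agilent arrays, fresh or stripped once, were converted to double-stranded form by primer extension. GST-tagged yeast transcription factors from PURExpress in vitro transcription/translation, full-length or DNA-binding domain only, were applied at about 100-200 nM and detected with fluorescent anti-GST. After masliner normalisation, the Universal PBM Analysis Suite scored each ungapped eight-base word together with its reverse complement by E-score.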
With CCCGTCAA the “PBM E-score” value was -0.0729. In the case of AGGTACGA, the “PBM E-score” value is reported as -0.137. For AAACAGCT, the “PBM E-score” value was 0.0347. In the case of GAAGCAGA, the “PBM E-score” value is reported as 0.0335. GAAGCCAC was tested, and the “PBM E-score” value was -0.0556. For GATGAATA, the “PBM E-score” value was 0.0934. For AACCTAAA, the “PBM E-score” value was 0.205. In the case of AGATGATA, the “PBM E-score” value is reported as 0.187. AACGACTC was tested, and the “PBM E-score” value was -0.242. With CAGCGCGC the “PBM E-score” value was 0.0173. With ACCGGCAG the “PBM E-score” value was 0.0457. CTGGAAAC was tested, and the “PBM E-score” value was 0.032. With GCTACACA the “PBM E-score” value was -0.117. For TAGAGCCA, the “PBM E-score” value was -0.247. In the case of CATGAGTC, the “PBM E-score” value is reported as -0.206. For AATGAATC, the “PBM E-score” value was -0.0127. CACTTCTG was tested, and the “PBM E-score” value was -0.207. In the case of CATTTTTA, the “PBM E-score” value is reported as -0.121. GCTACGAC was tested, and the “PBM E-score” value was -0.0595. AGCTGCTA was tested, and the “PBM E-score” value was -0.0465. CACTAATC was tested, and the “PBM E-score” value was 0.0249. With CCCTTACA the “PBM E-score” value was -0.118. For CCGAGTGC, the “PBM E-score” value was 0.171. With AATCCTGA the “PBM E-score” value was 0.0482. In the case of CATGTTCA, the “PBM E-score” value is reported as -0.288. In the case of ATCGTTCG, the “PBM E-score” value is reported as 0.0826. With GAGCCCTA the “PBM E-score” value was -0.081. For ATTAGTAA, the “PBM E-score” value was 0.167. With CACGAATC the “PBM E-score” value was 0.0178. CGTATACA was tested, and the “PBM E-score” value was 0.094. For GCGTCGAC, the “PBM E-score” value was 0.0112. In the case of CATCCATC, the “PBM E-score” value is reported as -0.312. With GTTCTTGA the “PBM E-score” value was -0.0364. CTACATTC was tested, and the “PBM E-score” value was -0.0537. In the case of GGAAAACC, the “PBM E-score” value is reported as 0.0228. GCCCGTCA was tested, and the “PBM E-score” value was -0.138. With CTATTCCC the “PBM E-score” value was 0.0619. In the case of ATTGGGAA, the “PBM E-score” value is reported as -0.0191. For TGCTTTAA, the “PBM E-score” value was -0.00702. In the case of GACGTTCA, the “PBM E-score” value is reported as -0.198. In the case of GCGGCCCA, the “PBM E-score” value is reported as 0.106. AGACCTCC was tested, and the “PBM E-score” value was -0.328. ACGTACGC was tested, and the “PBM E-score” value was -0.297. For CAAGCATC, the “PBM E-score” value was -0.105. In the case of GTAAGTTA, the “PBM E-score” value is reported as -0.00447. For ATCTGGTA, the “PBM E-score” value was -0.0155. ACAAGGAC was tested, and the “PBM E-score” value was -0.244. For CGTTATTA, the “PBM E-score” value was 0.144. For CTCGTCTC, the “PBM E-score” value was -0.164. With AGGGAATA the “PBM E-score” value was 0.0512. For ATGCATGG, the “PBM E-score” value was 0.103. TATATATA was tested, and the “PBM E-score” value was 0.424. With TATCCGCA the “PBM E-score” value was 0.293. GAGAATCA was tested, and the “PBM E-score” value was 0.0478. In the case of ATTCCAGA, the “PBM E-score” value is reported as 0.0645. In the case of CATGGGGA, the “PBM E-score” value is reported as -0.24. GATGTCAA was tested, and the “PBM E-score” value was -0.0419. In the case of CATGCTCC, the “PBM E-score” value is reported as -0.245. AGTGCGGG was tested, and the “PBM E-score” value was -0.0197. For AGAACAGA, the “PBM E-score” value was 0.0872. With CTTTTGAC the “PBM E-score” value was 0.00937. For AGTACTAG, the “PBM E-score” value was 0.0969. With CGACCAAG the “PBM E-score” value was -0.197. For TGGAAAAA, the “PBM E-score” value was 0.132. In the case of CTCTTCAG, the “PBM E-score” value is reported as 0.01. With CCTACGGA the “PBM E-score” value was -0.033. With GCCGTTTA the “PBM E-score” value was 0.149. For CGTTTGTA, the “PBM E-score” value was 0.0882. In the case of GAAGTGGC, the “PBM E-score” value is reported as -0.147. AGGCGCTG was tested, and the “PBM E-score” value was -0.0666. ATGTTCAC was tested, and the “PBM E-score” value was 0.00553. In the case of CCGACATC, the “PBM E-score” value is reported as 0.155. In the case of ACGTCACA, the “PBM E-score” value is reported as -0.0893. With CAGCTAGG the “PBM E-score” value was -0.289. With CACGTCTG the “PBM E-score” value was 0.0617. In the case of CGATATAG, the “PBM E-score” value is reported as 0.0508. For CGGTGAAC, the “PBM E-score” value was 0.0315. With GGGCGACC the “PBM E-score” value was -0.167. With GCGGAACA the “PBM E-score” value was 0.237. AAATACAC was tested, and the “PBM E-score” value was 0.0314. With CAACTGCA the “PBM E-score” value was 0.0872. CCTCAGGC was tested, and the “PBM E-score” value was -0.189. With ACCCTTAC the “PBM E-score” value was -0.25. In the case of CGATAAAA, the “PBM E-score” value is reported as 0.333. AACCTTGC was tested, and the “PBM E-score” value was -0.177. With CTTTCAAC the “PBM E-score” value was 0.0434.
